# Test results reported in the supplement of paper PMC5836539.
# The chains behind the UniProt entries cited, without tags or fusion partners. Where a name states a change or a piece, a line headed by the entry shows the natural chain unless it says otherwise.
# UniProt O15541: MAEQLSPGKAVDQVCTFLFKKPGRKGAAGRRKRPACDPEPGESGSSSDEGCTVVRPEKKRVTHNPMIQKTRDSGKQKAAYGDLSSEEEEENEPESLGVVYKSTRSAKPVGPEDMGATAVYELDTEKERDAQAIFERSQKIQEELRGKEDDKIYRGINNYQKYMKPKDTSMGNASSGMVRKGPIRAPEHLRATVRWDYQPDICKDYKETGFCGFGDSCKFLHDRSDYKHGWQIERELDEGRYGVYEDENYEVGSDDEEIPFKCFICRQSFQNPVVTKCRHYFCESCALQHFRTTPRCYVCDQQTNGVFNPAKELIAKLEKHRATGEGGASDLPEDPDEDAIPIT
# UniProt Q14258, whole entry, looked up: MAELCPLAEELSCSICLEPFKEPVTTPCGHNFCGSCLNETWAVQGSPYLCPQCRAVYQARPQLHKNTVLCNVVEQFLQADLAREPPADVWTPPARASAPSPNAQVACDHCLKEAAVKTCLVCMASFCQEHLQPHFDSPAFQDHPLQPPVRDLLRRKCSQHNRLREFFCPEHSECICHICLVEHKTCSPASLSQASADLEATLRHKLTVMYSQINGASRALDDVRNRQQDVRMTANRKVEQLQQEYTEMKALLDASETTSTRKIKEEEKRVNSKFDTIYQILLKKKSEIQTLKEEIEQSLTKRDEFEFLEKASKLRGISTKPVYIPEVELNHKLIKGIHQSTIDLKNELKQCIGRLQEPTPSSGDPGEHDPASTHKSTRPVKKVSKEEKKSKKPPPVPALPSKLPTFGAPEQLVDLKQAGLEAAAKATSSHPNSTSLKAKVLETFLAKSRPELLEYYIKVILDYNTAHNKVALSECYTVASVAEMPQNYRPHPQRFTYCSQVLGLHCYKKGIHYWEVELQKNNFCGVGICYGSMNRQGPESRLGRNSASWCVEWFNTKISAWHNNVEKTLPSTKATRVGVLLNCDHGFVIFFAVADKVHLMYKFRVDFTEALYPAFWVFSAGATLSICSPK
# UniProt Q9Y2V2: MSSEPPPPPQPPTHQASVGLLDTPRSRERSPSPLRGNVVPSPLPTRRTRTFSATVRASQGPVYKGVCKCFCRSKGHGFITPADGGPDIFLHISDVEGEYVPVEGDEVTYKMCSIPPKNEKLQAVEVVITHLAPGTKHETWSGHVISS
# UniProt P51608, whole entry: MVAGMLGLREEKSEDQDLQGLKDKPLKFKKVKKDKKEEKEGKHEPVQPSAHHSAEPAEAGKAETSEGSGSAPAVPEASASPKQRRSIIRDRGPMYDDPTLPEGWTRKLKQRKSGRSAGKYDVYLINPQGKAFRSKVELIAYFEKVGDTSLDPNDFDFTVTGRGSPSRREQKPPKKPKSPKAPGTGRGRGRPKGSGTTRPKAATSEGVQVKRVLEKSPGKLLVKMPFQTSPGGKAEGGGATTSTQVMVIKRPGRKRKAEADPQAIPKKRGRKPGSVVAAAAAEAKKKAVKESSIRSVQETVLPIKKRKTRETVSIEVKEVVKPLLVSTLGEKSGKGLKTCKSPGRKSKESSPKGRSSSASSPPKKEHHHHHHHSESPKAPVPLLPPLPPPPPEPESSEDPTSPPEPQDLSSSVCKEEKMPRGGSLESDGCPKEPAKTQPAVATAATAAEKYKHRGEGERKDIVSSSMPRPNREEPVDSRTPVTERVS
# UniProt Q13315: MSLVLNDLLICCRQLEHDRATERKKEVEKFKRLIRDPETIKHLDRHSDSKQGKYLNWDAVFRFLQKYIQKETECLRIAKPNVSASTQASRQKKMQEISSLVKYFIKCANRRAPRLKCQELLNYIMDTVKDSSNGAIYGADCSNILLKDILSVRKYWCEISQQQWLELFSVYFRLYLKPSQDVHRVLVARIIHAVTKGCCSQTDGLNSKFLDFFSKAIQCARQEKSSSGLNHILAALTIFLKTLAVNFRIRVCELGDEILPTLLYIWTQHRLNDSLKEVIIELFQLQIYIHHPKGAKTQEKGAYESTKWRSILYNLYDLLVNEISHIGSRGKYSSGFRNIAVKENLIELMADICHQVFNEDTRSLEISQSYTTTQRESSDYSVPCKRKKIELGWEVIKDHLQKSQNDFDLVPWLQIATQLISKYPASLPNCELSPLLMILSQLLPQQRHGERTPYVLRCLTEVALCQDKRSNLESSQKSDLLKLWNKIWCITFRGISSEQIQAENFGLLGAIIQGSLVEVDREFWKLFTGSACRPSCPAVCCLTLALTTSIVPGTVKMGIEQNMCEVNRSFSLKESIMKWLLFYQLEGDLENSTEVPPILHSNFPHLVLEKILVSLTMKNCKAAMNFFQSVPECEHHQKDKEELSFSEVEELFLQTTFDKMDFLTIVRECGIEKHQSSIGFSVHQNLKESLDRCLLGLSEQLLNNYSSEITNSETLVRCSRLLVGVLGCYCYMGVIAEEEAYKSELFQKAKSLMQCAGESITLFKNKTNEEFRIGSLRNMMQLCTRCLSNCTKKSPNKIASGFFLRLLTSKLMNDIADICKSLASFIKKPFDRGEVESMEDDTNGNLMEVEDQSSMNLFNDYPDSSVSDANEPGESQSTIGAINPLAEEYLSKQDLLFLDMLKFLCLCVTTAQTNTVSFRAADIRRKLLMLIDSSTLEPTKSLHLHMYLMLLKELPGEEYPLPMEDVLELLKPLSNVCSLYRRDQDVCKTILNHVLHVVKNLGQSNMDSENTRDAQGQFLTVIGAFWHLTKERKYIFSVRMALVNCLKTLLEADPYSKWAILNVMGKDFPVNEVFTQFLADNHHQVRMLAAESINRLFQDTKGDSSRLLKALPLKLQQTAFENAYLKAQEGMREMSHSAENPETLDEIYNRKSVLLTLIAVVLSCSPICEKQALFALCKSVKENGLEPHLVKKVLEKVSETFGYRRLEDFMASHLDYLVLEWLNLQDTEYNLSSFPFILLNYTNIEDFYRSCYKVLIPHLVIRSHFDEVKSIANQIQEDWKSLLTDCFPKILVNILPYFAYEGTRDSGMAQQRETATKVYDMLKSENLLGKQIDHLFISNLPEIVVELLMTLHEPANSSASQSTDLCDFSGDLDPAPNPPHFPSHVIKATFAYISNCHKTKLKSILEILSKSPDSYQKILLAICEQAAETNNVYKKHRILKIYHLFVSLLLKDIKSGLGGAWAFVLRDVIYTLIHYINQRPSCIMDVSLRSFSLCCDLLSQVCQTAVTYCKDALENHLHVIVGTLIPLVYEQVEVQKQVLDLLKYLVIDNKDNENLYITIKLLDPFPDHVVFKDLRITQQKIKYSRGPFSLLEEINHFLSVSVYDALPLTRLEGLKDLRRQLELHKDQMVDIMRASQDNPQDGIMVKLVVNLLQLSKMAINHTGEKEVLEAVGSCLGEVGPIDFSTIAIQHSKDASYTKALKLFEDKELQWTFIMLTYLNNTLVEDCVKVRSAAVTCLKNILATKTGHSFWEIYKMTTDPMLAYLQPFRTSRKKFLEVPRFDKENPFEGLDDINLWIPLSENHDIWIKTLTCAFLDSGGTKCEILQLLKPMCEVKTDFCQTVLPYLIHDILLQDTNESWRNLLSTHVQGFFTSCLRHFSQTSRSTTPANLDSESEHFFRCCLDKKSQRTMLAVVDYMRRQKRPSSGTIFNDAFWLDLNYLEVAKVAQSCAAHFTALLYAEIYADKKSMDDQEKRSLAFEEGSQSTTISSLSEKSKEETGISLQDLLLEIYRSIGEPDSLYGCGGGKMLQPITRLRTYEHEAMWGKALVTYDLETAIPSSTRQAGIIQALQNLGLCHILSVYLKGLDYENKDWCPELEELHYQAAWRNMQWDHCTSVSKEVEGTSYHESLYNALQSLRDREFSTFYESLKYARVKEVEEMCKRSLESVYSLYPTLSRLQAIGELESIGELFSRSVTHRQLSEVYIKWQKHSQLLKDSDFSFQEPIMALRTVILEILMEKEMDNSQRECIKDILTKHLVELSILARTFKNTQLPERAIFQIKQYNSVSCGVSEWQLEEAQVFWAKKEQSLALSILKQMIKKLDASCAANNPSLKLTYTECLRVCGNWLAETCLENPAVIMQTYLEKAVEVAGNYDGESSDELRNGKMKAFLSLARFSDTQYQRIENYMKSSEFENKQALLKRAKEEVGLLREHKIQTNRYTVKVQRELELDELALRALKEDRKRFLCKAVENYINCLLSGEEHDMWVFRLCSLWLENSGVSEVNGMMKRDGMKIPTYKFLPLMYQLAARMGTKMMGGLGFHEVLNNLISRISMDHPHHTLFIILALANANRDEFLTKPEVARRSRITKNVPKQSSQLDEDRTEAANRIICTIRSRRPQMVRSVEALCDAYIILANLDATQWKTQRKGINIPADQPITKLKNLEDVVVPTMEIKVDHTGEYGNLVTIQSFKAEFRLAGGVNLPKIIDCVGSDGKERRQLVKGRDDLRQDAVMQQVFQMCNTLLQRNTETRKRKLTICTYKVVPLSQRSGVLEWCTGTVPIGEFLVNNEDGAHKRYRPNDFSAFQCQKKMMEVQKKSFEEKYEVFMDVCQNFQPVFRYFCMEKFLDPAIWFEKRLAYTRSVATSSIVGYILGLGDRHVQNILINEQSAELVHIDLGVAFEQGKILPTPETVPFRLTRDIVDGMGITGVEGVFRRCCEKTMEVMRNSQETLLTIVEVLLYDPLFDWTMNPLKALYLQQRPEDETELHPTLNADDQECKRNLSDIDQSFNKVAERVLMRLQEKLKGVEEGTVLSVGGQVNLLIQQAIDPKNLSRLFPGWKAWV
# UniProt Q9H6H4: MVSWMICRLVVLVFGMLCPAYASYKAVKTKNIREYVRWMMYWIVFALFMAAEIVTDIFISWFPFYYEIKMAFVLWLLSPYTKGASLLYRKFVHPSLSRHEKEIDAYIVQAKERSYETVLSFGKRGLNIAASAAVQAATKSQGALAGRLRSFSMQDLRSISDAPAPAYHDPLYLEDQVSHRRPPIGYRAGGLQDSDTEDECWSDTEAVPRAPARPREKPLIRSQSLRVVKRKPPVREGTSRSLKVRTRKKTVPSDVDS
# UniProt O75152: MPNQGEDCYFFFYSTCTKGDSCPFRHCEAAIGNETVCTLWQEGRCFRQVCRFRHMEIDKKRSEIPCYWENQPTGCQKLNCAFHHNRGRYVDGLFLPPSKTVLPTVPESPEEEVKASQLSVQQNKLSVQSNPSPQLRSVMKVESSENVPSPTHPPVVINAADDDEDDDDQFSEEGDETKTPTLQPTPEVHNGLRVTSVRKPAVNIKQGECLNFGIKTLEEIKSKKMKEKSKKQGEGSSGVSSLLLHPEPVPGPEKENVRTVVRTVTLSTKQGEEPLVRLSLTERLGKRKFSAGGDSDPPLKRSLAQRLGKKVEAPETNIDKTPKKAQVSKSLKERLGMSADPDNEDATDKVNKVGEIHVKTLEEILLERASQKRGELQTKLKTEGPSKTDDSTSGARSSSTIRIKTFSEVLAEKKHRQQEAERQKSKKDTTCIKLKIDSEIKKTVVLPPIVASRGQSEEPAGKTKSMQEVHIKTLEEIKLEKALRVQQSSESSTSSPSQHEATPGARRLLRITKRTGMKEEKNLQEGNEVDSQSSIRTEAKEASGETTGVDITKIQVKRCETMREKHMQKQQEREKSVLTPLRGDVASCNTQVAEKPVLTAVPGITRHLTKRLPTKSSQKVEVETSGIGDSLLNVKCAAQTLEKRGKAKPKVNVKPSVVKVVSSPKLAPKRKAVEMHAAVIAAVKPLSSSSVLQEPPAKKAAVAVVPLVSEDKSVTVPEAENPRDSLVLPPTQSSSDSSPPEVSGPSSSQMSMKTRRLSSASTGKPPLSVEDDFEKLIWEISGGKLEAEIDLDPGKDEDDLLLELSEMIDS
# UniProt Q9UGY1: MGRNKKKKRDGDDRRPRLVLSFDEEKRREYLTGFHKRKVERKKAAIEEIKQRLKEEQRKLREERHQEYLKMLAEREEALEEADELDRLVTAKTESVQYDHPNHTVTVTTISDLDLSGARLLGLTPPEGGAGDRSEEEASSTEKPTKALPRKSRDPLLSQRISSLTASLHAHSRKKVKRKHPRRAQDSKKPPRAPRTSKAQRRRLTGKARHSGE
# UniProt P18615, whole entry: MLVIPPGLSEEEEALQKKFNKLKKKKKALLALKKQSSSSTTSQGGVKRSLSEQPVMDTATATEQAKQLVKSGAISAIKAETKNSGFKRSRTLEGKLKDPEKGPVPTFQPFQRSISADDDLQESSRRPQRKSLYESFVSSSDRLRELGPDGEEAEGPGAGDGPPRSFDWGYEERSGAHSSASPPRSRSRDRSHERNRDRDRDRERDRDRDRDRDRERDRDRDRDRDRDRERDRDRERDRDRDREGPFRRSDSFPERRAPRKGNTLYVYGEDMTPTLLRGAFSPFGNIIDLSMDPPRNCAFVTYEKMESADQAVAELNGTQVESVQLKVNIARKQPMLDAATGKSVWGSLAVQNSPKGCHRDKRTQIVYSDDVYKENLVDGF
# UniProt Q15527: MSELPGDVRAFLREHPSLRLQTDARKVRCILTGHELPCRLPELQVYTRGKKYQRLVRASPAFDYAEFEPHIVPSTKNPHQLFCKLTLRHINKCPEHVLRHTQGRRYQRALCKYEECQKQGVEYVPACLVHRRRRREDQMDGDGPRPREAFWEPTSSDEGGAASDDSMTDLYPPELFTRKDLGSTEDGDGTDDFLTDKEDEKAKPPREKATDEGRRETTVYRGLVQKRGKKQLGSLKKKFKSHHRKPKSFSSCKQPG
# ± gives the standard deviation of the averaged measurements. Single values are uncertain here, since repeats match poorly.
# Compound: CC[C@@H](C)Nc1cc(C(=O)N[C@H]2C[C@H]3CC[C@@H](C2)N3c2ccc(C(=O)C3CC3)cn2)c(C)cc1C(N)=O [XL888]
# Assay: phosphopeptide melting temperature shift (XL888 minus DMSO); higher = stabilised by drug treatment
# Conditions: 100 µM; treatment time 2 h; layout: intact cells; SK-Mel 28
# Experimental: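 Phospho-TPP in intact SK-Mel 28 cells treated with 100 uM XL888 or DMSO for 2 h, heated at 10 temperatures (37-67 C) for 3 min, soluble fraction TMT10plex-labelled and TiO2 phospho-enriched. Melting curves were fitted per phosphopeptide; the value is the melting point difference (drug minus vehicle) in each of two biological replicates.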
row,Target,phosphopeptide melting temperature shift
1,UniProt P16383_phosphosite_174 (phosphosite position: 174),0.606 ± 1.4 °C
2,UniProt Q8TF01_phosphosite_211 (phosphosite position: 211),-0.559 °C
3,UniProt Q9NQC3-5_phosphosite_181 (phosphosite position: 181),1.44 ± 0.47 °C
4,ABCF1 phosphosite_22 (phosphosite position: 22) (UniProt Q8NE71),0.364 °C
5,TMPO phosphosite_67 (phosphosite position: 67) (UniProt P42166),3.12 ± 2.3 °C
6,EML4 phosphosite_146 (phosphosite position: 146) (UniProt Q9HC35),2.15 ± 2.4 °C
7,SASH1 phosphosite_1051 (phosphosite position: 1051) (UniProt O94885),-1.15 °C
8,SH3PXD2B phosphosite_293 (phosphosite position: 293) (UniProt A1X283),2.59 °C
9,AFF4 phosphosite_487 (phosphosite position: 487) (UniProt Q9UHB7),0.839 °C
10,SRRM2 phosphosite_435 (phosphosite position: 435) (UniProt Q9UQ35),2.35 °C
11,EIF5B phosphosite_135 (phosphosite position: 135) (UniProt O60841),2.04 ± 2.4 °C
12,ZNF609 phosphosite_491 (phosphosite position: 491) (UniProt O15014),4.49 °C
13,UniProt Q92890_phosphosite_247 (phosphosite position: 247),0.77 °C
14,RNF113A phosphosite_85 (phosphosite position: 85) (UniProt O15541),-0.927 ± 0.83 °C
15,TRIM25 phosphosite_100 (phosphosite position: 100) (UniProt Q14258),1.13 ± 0.86 °C
16,CARHSP1 phosphosite_32 (phosphosite position: 32) (UniProt Q9Y2V2),0.874 ± 2 °C
17,MECP2 phosphosite_80 (phosphosite position: 80) (UniProt P51608),1.55 ± 0.35 °C
18,UniProt Q9Y5B6-2_phosphosite_557 (phosphosite position: 557),0.82 °C
19,NSUN2 phosphosite_456 (phosphosite position: 456) (UniProt Q08J23),0.0738 °C
20,CCDC86 phosphosite_113 (phosphosite position: 113) (UniProt Q9H6F5),2.29 °C
21,UniProt Q5T1M5-2_phosphosite_1152 (phosphosite position: 1152),0.118 °C
22,UniProt Q5T1V6-2_phosphosite_76 (phosphosite position: 76),1.25 °C
23,UniProt Q5H9R7-2_phosphosite_523 (phosphosite position: 523),0.71 ± 1.6 °C

row,Target,phosphopeptide melting temperature shift
1,PRKAB2 phosphosite_39 (phosphosite position: 39) (UniProt O43741),2.27 °C
2,ACSS2 phosphosite_267 (phosphosite position: 267) (UniProt Q9NR19),-0.455 °C
3,ATM phosphosite_1981 (phosphosite position: 1981) (UniProt Q13315),-2.59 °C
4,SMARCAD1 phosphosite_212 (phosphosite position: 212) (UniProt Q9H4L7),0.57 °C
5,REEP4 phosphosite_152 (phosphosite position: 152) (UniProt Q9H6H4),0.826 ± 0.71 °C
6,ZC3H11A phosphosite_758 (phosphosite position: 758) (UniProt O75152),6.45 ± 0.25 °C
7,UniProt Q96S55-2_phosphosite_116 (phosphosite position: 116),2.05 °C
8,PAK2 phosphosite_169 (phosphosite position: 169) (UniProt Q13177),0.358 ± 1.4 °C
9,UniProt P51812_phosphosite_365 (phosphosite position: 365),-0.136 ± 0.18 °C
10,UniProt Q16666-3_phosphosite_153 (phosphosite position: 153),1.27 ± 0.59 °C
11,SUZ12 phosphosite_546 (phosphosite position: 546) (UniProt Q15022),-1.06 °C
12,UniProt Q13017-2_phosphosite_590 (phosphosite position: 590),0.813 ± 0.34 °C
13,UniProt Q92754-2_phosphosite_265 (phosphosite position: 265),0.255 °C
14,ILF3 phosphosite_476 (phosphosite position: 476) (UniProt Q12906),-0.279 ± 0.44 °C
15,UniProt Q8NC51-3_phosphosite_240 (phosphosite position: 240),1.27 ± 3.2 °C
16,MYO18A phosphosite_2043 (phosphosite position: 2043) (UniProt Q92614),0.693 ± 1 °C
17,MAP1B phosphosite_1208 (phosphosite position: 1208) (UniProt P46821),2.18 °C
18,UniProt O43166-3_phosphosite_1530 (phosphosite position: 1530),1.61 °C
19,UniProt Q6P158-3_phosphosite_25 (phosphosite position: 25),-0.574 °C
20,NOL12 phosphosite_139 (phosphosite position: 139) (UniProt Q9UGY1),-1.43 °C
21,UniProt P54253_phosphosite_238 (phosphosite position: 238),-1.04 °C
22,ASAP1 phosphosite_1027 (phosphosite position: 1027) (UniProt Q9ULH1),-1.58 ± 0.59 °C
23,PSMF1 phosphosite_152 (phosphosite position: 152) (UniProt Q92530),0.497 ± 1.9 °C

row,Target,phosphopeptide melting temperature shift
1,UniProt Q86UU1-3_phosphosite_520 (phosphosite position: 520),-0.494 °C
2,UniProt Q5T8P6-3_phosphosite_127 (phosphosite position: 127),-0.113 °C
3,PFKFB2 phosphosite_466 (phosphosite position: 466) (UniProt O60825),0.91 °C
4,UniProt O94864-2_phosphosite_106 (phosphosite position: 106),-0.495 °C
5,UniProt Q15139_phosphosite_205 (phosphosite position: 205),-2 ± 1.9 °C
6,UniProt P18615_phosphosite_181 (phosphosite position: 181),1.56 °C
7,SRRM1 phosphosite_391 (phosphosite position: 391) (UniProt Q8IYB3),0.0666 °C
8,UniProt O95104-2_phosphosite_154 (phosphosite position: 154),-1.25 °C
9,MAPRE3 phosphosite_161 (phosphosite position: 161) (UniProt Q9UPY8),-0.0922 °C
10,UniProt O95218-2_phosphosite_193 (phosphosite position: 193),0.912 °C
11,UniProt P30622-2_phosphosite_348 (phosphosite position: 348),0.174 °C
12,UniProt Q92974-3_phosphosite_912 (phosphosite position: 912),5.04 °C
13,UniProt Q92538-3_phosphosite_352 (phosphosite position: 352),2.11 ± 1.2 °C
14,UniProt Q66K74-2_phosphosite_446 (phosphosite position: 446),-0.000445 ± 0.033 °C
15,UniProt Q9P2Q2_phosphosite_800 (phosphosite position: 800),0.793 °C
16,UniProt Q9NWK9-2_phosphosite_25 (phosphosite position: 25),-0.346 °C
17,UniProt P85037-2_phosphosite_253 (phosphosite position: 253),0.602 °C
18,UniProt Q9H410-4_phosphosite_42 (phosphosite position: 42),0.996 °C
19,BCKDHA phosphosite_337 (phosphosite position: 337) (UniProt P12694),-0.683 ± 1.8 °C
20,SURF2 phosphosite_195 (phosphosite position: 195) (UniProt Q15527),1.47 ± 0.47 °C
21,UniProt Q2PPJ7-3_phosphosite_821 (phosphosite position: 821),0.205 °C

# Single entries from the list.
# For phosphopeptide melting temperature shift, UniProt Q92538-3_phosphosite_352 (phosphosite position: 352) reads 2.11 ± 1.2 °C
# For phosphopeptide melting temperature shift, UniProt Q92974-3_phosphosite_912 (phosphosite position: 912) reads 5.04 °C
# For phosphopeptide melting temperature shift, UniProt O95218-2_phosphosite_193 (phosphosite position: 193) reads 0.912 °C
